# From article PMC5996148
# “And” between values parts separate entries of the source, which are not always exact repeats. Equal values may be shown once. This is one part of the list.
# What was measured:
# Experiment in all cases: protein microarray (ProtoArray v5.0), streptavidin-Alexa Fluor 647
# Conditions in all cases: 3'-biotin; 20 mM Tris (pH 7.5), 5 mM MgCl2, 100 mM KCl, 0.1% Tween-20, A/T-rich and random oligonucleotide blockers; temperature not stated; high values mean tight binding
# [1] = tested on: Alcohol dehydrogenase class 4 mu/sigma chain (human)
# [2] = tested on: Aldehyde dehydrogenase family 16 member A1 (human)
# [3] = tested on: Aldehyde dehydrogenase family 8 member A1 (human)
# [4] = tested on: Aldo-keto reductase family 1 member C2 (human)
# Alpha-catulin (human) = tested on: Alpha-catulin (human)
# [5] = tested on: Amino-terminal enhancer of split (human)
# [6] = tested on: Anaphase-promoting complex subunit 11 (human)
# [7] = tested on: Angiogenic factor with G patch and FHA domains 1 (human)
# [8] = tested on: Annexin-2 receptor (human)
# [9] = tested on: Apolipoprotein A-IV (human)
# [10] = tested on: Apolipoprotein L2 (human)
# Arfaptin-1 (human) = tested on: Arfaptin-1 (human)
# [11] = tested on: Armadillo repeat-containing protein 6 (human)
# [12] = tested on: Aromatic-L-amino-acid decarboxylase (human)
# Ataxin-3 (human) = tested on: Ataxin-3 (human)
# [13] = tested on: Autophagy-related protein 3 (human)
# B3GALT4 (human) = tested on: B3GALT4 (human)
# B3GNT1 (human) = tested on: B3GNT1 (human)
# BAG2 (human) = tested on: BAG2 (human)
# BAT1 (human) = tested on: BAT1 (human)
sequence,measurement,setting,value
GGGGACAGGGGTATGGGGAGGGG [G4-3 biotinylated (CtG)],binding signal,[1],-0.309 z-score
same,binding signal,[2],-0.322 z-score
same,binding signal,[3],-0.339 z-score
same,binding signal,[4],-0.318 z-score
same,binding signal,Alpha-catulin (human),-0.334 z-score
same,binding signal,[5],-0.334 z-score
same,binding signal,[6],-0.318 z-score
same,binding signal,[7],4 z-score
same,binding signal,[8],-0.296 z-score and -0.341 z-score
same,binding signal,[9],-0.33 z-score
same,binding signal,[10],-0.334 z-score
same,binding signal,Arfaptin-1 (human),-0.34 z-score
same,binding signal,[11],-0.336 z-score
same,binding signal,[12],-0.336 z-score
same,binding signal,Ataxin-3 (human),-0.324 z-score
same,binding signal,[13],-0.32 z-score
same,binding signal,B3GALT4 (human),-0.315 z-score
same,binding signal,B3GNT1 (human),-0.318 z-score
same,binding signal,BAG2 (human),-0.325 z-score
same,binding signal,BAT1 (human),-0.28 z-score

# Some of the entries so far, bar-delimited:
sequence | measurement | setting | value
GGGGACAGGGGTATGGGGAGGGG [G4-3 biotinylated (CtG)] | binding signal | [2] | -0.322 z-score
same | binding signal | [5] | -0.334 z-score
same | binding signal | Arfaptin-1 (human) | -0.34 z-score
same | binding signal | B3GALT4 (human) | -0.315 z-score
same | binding signal | BAG2 (human) | -0.325 z-score
